# Reference: PubChem BioAssay AID493014 (National Center for Advancing Translational Sciences (NCATS), 2011)
# Among all 340,000 compounds or so, about 170 (0.05%) were called active. Inconclusive means that the source gave no clear call. Such entries were picked first, then a sample of the others. Calls follow the shape of the dose curve; as a rule, active = well fitted inhibition curve with a large enough effect in the signal ratio, with a control signal flat (not every such curve was filed as active); inconclusive = small, poorly fitted or top-dose-only effect, or effect the other way, or a change in a side signal; inactive = flat fitted curve, though single readings scatter; the % refers to the signal ratio. Potencies beside an inconclusive call are fits to weak or partial responses and may not hold up.
# Experiment: qHTS Assay to Find Inhibitors of Chronic Active B-Cell Receptor Signaling;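 as to activity change, negative = inhibition: plate controls were basal doxycycline-induced cells for no effect and cells given 10 µM MG132 for full effect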
# Settings: ABC-DLBCL IkBa-CBG/CBR reporter, luminescence ratio (green luciferase fused to IkBa over red control in TMD8 lymphoma cells), 4 h; activity change, negative = inhibition: at 46.1 µM (top of the series) unless noted
# Method in brief: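 Compounds up to 46 uM were incubated four hours with TMD8 cells whose green CBG68 luciferase is fused to IkappaBalpha; red CBR luminescence normalised the signal, and concentration-effect curves were fitted to fusion, red and ratio data.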
# Potency is read from the fitted curve at half-maximal effect.
SMILES,"activity change, negative = inhibition",Potency
COCC(=O)N1CCC(Oc2ccc(C(=O)N3CCN(C)C[C@@H]3C(C)C)cc2)CC1,inconclusive: -7.58%,
C/C(=N\Nc1cc(-c2ccccc2)nc(-c2ccccc2)n1)c1ccc(O)c(C)c1,,"inconclusive: 9.2 µM [rising, partial curve]"
COc1ccc(NC(=O)C2CCCN(S(C)(=O)=O)C2)cc1 (configuration not stated),inconclusive: -14.6%,
C=CCn1c(C)cc(C(=O)COc2ncnc3sccc23)c1C,inactive: -1.19%,
C/C(Cn1nc([N+](=O)[O-])cc1C)=N\NC(=O)COc1c(Cl)cc(Cl)cc1Cl,,"inconclusive: 32.6 µM [falling, partial curve, poor fit]"
O=C(Nc1ccc(OCc2ccccc2)cc1)c1ccccc1,inconclusive: 12%,
CCn1cnc2c1c(=O)n(CC(=O)Nc1ccc(C(N)=O)cc1)c(=O)n2Cc1ccccc1,inconclusive: -7.43%,
O=C(CCS(=O)(=O)c1ccccc1)Nc1ccc2c(c1)C(=O)NC2=O,inconclusive: 12.7%,
CCOC(=O)c1c(NC(=S)Nc2ccc(OCC)cc2)sc2c1CCN(C)C2,inconclusive: 5.99%,
CCn1c(=O)c(C(=O)NNC(=O)c2ccccc2F)c(O)c2ccccc21,,"inconclusive: 20 µM [falling, partial curve, poor fit]"
NC(=O)c1sc2nc3c(c(-c4ccco4)c2c1N)CCCC3,,"inconclusive: 8.91 µM [rising, partial curve]"
Cc1nn(C(CC(=O)O)C(=O)O)c(C)c1Br (configuration not stated),inactive: -1.3%,
COc1ccc(C(O)C(CC(=O)NCCCOC(C)C)C(=O)NCCCOC(C)C)cc1OC (configuration not stated),inconclusive: 5.66%,
CCn1nc(NC(=O)c2cccnc2)c2cc3ccccc3nc21,inconclusive: -10.6%,
c1ccc(CCNc2cnccn2)cc1,inactive: 1.49%,
CC(NC(=O)/C(=C\c1cccc([N+](=O)[O-])c1)NC(=O)c1ccco1)C(=O)O (configuration not stated),,"inconclusive: 15.8 µM [falling, single point]"
O=C(OC1CCOC1=O)c1ccc(N2CCCC2)c([N+](=O)[O-])c1 (configuration not stated),inactive: 3.32%,
CC(=O)Nc1ccc(SC[C@H](Cc2ccccc2)N2CC[C@@H](O)CCC2=O)cc1,inactive: 0.247%,
O=C(NCc1ccccc1CN1CCCC1)c1ccc(OCc2cscn2)cc1,inconclusive: 2.26%,
CCc1noc(C)c1C(=O)Nc1nc2c(C)cc(C)cc2s1,,"inconclusive: 16.4 µM [falling, partial curve, poor fit]"
CCC(=O)N1N=C(c2ccccc2)CC1c1ccccc1 (configuration not stated),inconclusive: 3.65%,
COc1cc(/C=N/NC(N)=O)ccc1OC(=O)c1cccs1,inconclusive: -0.298%,

# Shown as tab-separated lines: part of the list above
SMILES	activity change, negative = inhibition	Potency
COc1ccc(C(O)C(CC(=O)NCCCOC(C)C)C(=O)NCCCOC(C)C)cc1OC (configuration not stated)	inconclusive: 5.66%	
CCn1nc(NC(=O)c2cccnc2)c2cc3ccccc3nc21	inconclusive: -10.6%	
